Reference: patent publication US9724319B2, “Compositions and methods for the reduction or prevention of hepatic steatosis” (priority 2014, dated 2017)
For at least one compound, name, drawing or mass did not settle the structure.

Assays:
C-reactive protein (CRP) = experiment: Circulating C-reactive protein as marker of hepatic inflammatory stress; assay type: in vivo, C57Bl/6 mice; conditions: Example 5; HFD mice
[1] = system: high fat diet-induced hepatic steatosis; experiment: Liver weight after treatment of high fat diet-induced hepatic steatosis; assay type: in vivo, C57Bl/6 mice; conditions: HFD mice, six weeks, leucine 24 g/kg diet
[2] = system: HFD-induced hepatic steatosis; experiment: Prophylactic treatment concurrent with high fat diet feeding (Examples 6-8); assay type: in vivo, C57Bl/6 mice; conditions: treatments and HFD initiated on the same day, six weeks, doses as Tables 25-27
Method: C57Bl/6 mice are assigned to the following experimental groups as depicted in Table 25: Drug treatments and high fat diet feeding (as described in Example 1) are initiated on the same day and are carried out for six weeks. The effects of the treatments and diet on liver mass and hepatic lipid accumulation are assessed as described in the preceding examples. […] C57Bl/6 mice are assigned to the following experimental groups as depicted in Table 26: Drug treatments and high fat diet feeding (as described in Example 1) are initiated on the same day and are carried out for six weeks. The effects of the treatments and diet on liver mass and hepatic lipid accumulation are assessed as described in the preceding examples. […] In this study, the prophylactic effects of sub-therapeutic leucine alone, and co-administration of leucine and the PDE5-specific inhibitor icariin on liver mass and hepatic steatosis are assessed. C57Bl/6 mice are assigned to the following experimental groups as depicted in Table 27: Drug treatments and high fat diet feeding (as described in Example 1) are initiated on the same day and are carried out for six weeks. The effects of the treatments and diet on liver mass and hepatic lipid accumulation are assessed as described in the preceding examples.

[3] = system: hepatic steatosis (lipid vesicles in liver cells); experiment: Histological analysis of hepatic lipid accumulation after high fat diet; conditions: Example 3; HFD mice, six weeks; therapeutic metformin; combination: leucine + metformin 0.5 g/kg

CC(C)C[C@H](N)C(=O)O [leucine]
Effect on HFD-induced elevation of circulating CRP (C-reactive protein (CRP)): no independent effect | Effect on liver weight ([1]; Example 2, metformin 1.5 g/kg diet, resveratrol 12.5 mg/kg diet): no significant effect on liver weight | Effect on liver weight ([1]; Example 5, icariin 25 mg/kg): no effect on liver weight | Effect on HFD-induced hepatic lipid accumulation [2]: no significant effect | Effect on HFD-induced increase in liver mass [2]: no significant effect | Effect on hepatic steatosis (histological analysis) [3]: partially reversed hepatic steatosis
